Laboratory results published in PubChem BioAssay AID540276 (National Center for Advancing Translational Sciences (NCATS), 2011).
“And” between values parts separate entries of the source, which are not always exact repeats. Identical values can stand only once. Among all 300,000 compounds or so, about 5,400 (1.8%) were called active. This list was built around the results that the source calls inconclusive (neither active nor inactive); the mix of calls is not that of the screen. Calls follow the shape of the full dose curve; tested in HEK293 cells. Potencies beside an inconclusive call are fits to weak or partial responses and may not hold up.

Assay: qHTS for inhibitors of binding or entry into cells for Marburg Virus
Conditions: Marburg virus pseudotyped entry inhibition, cell reporter; activity change, negative = inhibition: at 37.8 µM (top of the series) unless noted
% is scaled to controls: 0 for no effect and ±100 for the full control effect; potency is read from the fitted curve at half-maximal effect.

Row | Structure (SMILES) | Potency | activity change, negative = inhibition
1 | CCOc1ccc(NS(=O)(=O)c2ccc(C(=O)NCC(c3ccc(OC)cc3)N3CCCC3)cc2)cc1 (centres undefined) | inconclusive: 31.6 µM [inhibitor, single point] | –
2 | CC(C)(C)C1CCc2c(sc(NC(=O)c3ccco3)c2C(N)=O)C1 (centres undefined) | – | inactive: 3.55%
3 | O=C(O)c1cccc2c1-c1ccccc1/C2=N\Nc1ccccc1 | inconclusive: 2.51 µM [activator, partial curve, poor fit] | –
4 | COc1ccc(S(=O)(=O)NCc2cccnc2)cc1NC(=O)c1ccc(C)cc1 | – | inactive: 3.55%
5 | CCOC(=O)c1cnc2c(OC)cccc2c1N1CCN(c2ccccc2OC)CC1 | inconclusive: 22.4 µM [inhibitor, single point] | –
6 | O=C(NCC1CCCO1)c1nn2c(C(F)(F)F)cc(-c3ccco3)nc2c1Cl (centres undefined) | – | inactive: 7.78%
7 | CC1=C(C(=O)Nc2cccnc2)C(c2ccccc2)n2nc(SCc3ccccc3)nc2N1 (centres undefined) | inconclusive: 31.6 µM [activator, single point] | –
8 | CSc1nccc(NC(=O)c2cccc(Br)c2)n1 | inconclusive: 35.5 µM [inhibitor, single point] | –
9 | O=C(COc1ccc([N+](=O)[O-])cc1Cl)Nc1ccc2[nH]c(=O)[nH]c2c1 | – | inactive: -2.16% [at 46.1 µM]
10 | Cc1ccccc1NC(=S)NCc1ccc(F)cc1 | inconclusive: 14.1 µM [activator, partial curve, poor fit] | –
11 | Cn1cc(Br)c(C(=O)NC2C3CC4CC(C3)CC2C4)n1 (centres undefined) | inconclusive: 11.6 µM [activator, single point] | –
12 | Fc1ccc(COc2ccc(-c3nnco3)cc2)cc1 | inconclusive: 6.31 µM [activator, partial curve, poor fit] | –
13 | O=C(NCc1ccccc1Cl)C1CCN(S(=O)(=O)Cc2ccccc2)CC1 | – | inactive: -6.33% [at 46.1 µM]
14 | CCc1ccc2nc(NC(=O)c3cc(C)on3)sc2c1 | – | inactive: -21.7%
15 | COc1cc(NC(=O)c2ccco2)c(OC)cc1NC(=O)CSc1nnc(-c2cccs2)n1C | inconclusive: 29.1 µM [inhibitor, single point] | –
16 | N#Cc1ccccc1Cn1c(=O)n(CCCC(=O)NCc2ccccc2Cl)c(=O)c2ccccc21 | inconclusive: 6.31 µM [activator, single point] | –
17 | CCOC(=O)NN1C(=O)c2ccccc2NC1c1cccs1 (centres undefined) | inconclusive: 35.5 µM [activator, single point] | –
18 | CN1C(=O)c2c(sc3c2CCCC3)NC1c1ccccc1O (centres undefined) | – | inactive: 1.09%
19 | CCOc1cc(-c2cc(-c3ccc(N)cc3)nc(N)c2C#N)ccc1O | inconclusive: 35.5 µM [inhibitor, single point] | –
20 | COC(=O)c1cccnc1Oc1ccccc1 | – | inactive: 1.71% [at 46.1 µM]
21 | COc1cccc(-c2nc(CS(=O)(=O)CC(=O)NCCc3ccc(OC)cc3OC)c(C)o2)c1 | inactive and inconclusive: 6.31 µM [inhibitor, single point] | –
22 | CCCC(=O)NC(c1ccc(C)cc1)c1ccc2cccnc2c1O (centres undefined) | active: 2.82 µM | –

Row | Structure (SMILES) | Potency | activity change, negative = inhibition
23 | O=C(Nc1ccc(S(=O)(=O)N2CCOCC2)cc1)C1CCN(S(=O)(=O)c2ccccc2)CC1 | – | inactive: -0.842%
24 | OCC1(Cc2cccc(C(F)(F)F)c2)CCN(Cc2cc3ccccc3o2)CC1 | inconclusive: 20 µM [inhibitor, single point] | –
25 | Cc1ccc(S(=O)(=O)Nc2cccc(C(=O)NCC(c3ccco3)N3CCCCC3)c2)cc1F (centres undefined) | inconclusive: 35.5 µM [inhibitor, single point] | –
26 | O=C1NC(=O)C2(Cc3ccccc3N3CCCC32)C(=O)N1c1ccccc1 (centres undefined) | – | inactive: 3.1%
27 | COc1ccc(-c2nc(C(N)=O)c3[nH]c(=O)n(-c4cccc(Cl)c4)c3n2)cc1OC | inconclusive: 25.1 µM [inhibitor, single point] | –
28 | COCCN(C(=O)CSc1nc2ccc(Cl)cc2[nH]1)c1c(N)n(Cc2ccccc2)c(=O)[nH]c1=O | – | inactive: 6.22%
29 | COc1cccc(CN(C(=O)COc2ccc(Cl)cc2)C2CCS(=O)(=O)C2)c1 (centres undefined) | inconclusive: 35.5 µM [inhibitor, partial curve, poor fit] | –
30 | CNc1oc(/C=C/c2ccccc2)nc1C#N | inconclusive: 29.1 µM [inhibitor, partial curve, poor fit] | –
31 | Nc1nc2ncc(C(=O)c3cc(F)ccc3O)cc2s1 | – | inactive: 0.307% [at 46.1 µM]
32 | COCCCNC(=O)c1ccc(Cn2c(=O)c3ccccc3n(CC(=O)Nc3c(C)cccc3C)c2=O)cc1 | – | inactive: -7.41% [at 46.1 µM]
33 | Cc1ccc(S(=O)(=O)Cn2nnnc2C(CC(C)C)N2CCN(c3ccc(F)cc3)CC2)cc1 (centres undefined) | inconclusive: 2.51 µM [inhibitor, partial curve, poor fit] | –
34 | Clc1ccc(Cn2nc(-c3ccccc3)nc2-c2ccccc2)cc1 | inconclusive: 5.62 µM [activator, single point] | –
35 | Cc1ccc(NC(=O)c2noc3c2CCC3)cc1C | inconclusive: 6.31 µM [inhibitor, partial curve, poor fit] | –
36 | NNC(=O)CCCCCCCCCCOCCCCO | inconclusive: 2.51 µM [activator, single point] | –
37 | CC(C)C(c1nnnn1C(C)(C)C)N1CCC(Cc2ccccc2)CC1 (centres undefined) | inconclusive: 10 µM [inhibitor, single point] | –
38 | N#C/C(=N/O)c1nc(-c2ccc(F)cc2)cs1 | – | inactive: -7.62%
39 | Cc1cc(C)c(S(=O)(=O)c2ccccc2C)c(OCC(C)(C)C)n1 | inconclusive: 35.5 µM [inhibitor, single point] | –
40 | Cn1c(=O)oc2cc(S(=O)(=O)Nc3ccc4c(c3)OCO4)ccc21 | – | inactive: 7.39%
41 | CC(C)Cn1c(N)c(C(=O)CSc2ccc3c(c2)OCCO3)c(=O)n(C)c1=O | inconclusive: 1.83 µM [inhibitor, full curve, poor fit] | –
42 | CCOC(=O)c1c(C)[nH]c(C(=O)N(C)Cc2cccc(OC)c2OC)c1C | inconclusive: 35.5 µM [inhibitor, single point] | –
43 | COc1ccc(-n2c(-c3ccc(C)cc3)n[nH]c2=S)cc1 | – | inactive: 9.09%
44 | CCOC(=O)Nc1nc(-c2ccccc2)c(C(=O)c2ccc(Cl)cc2)s1 | inconclusive: 8.91 µM [inhibitor, partial curve, poor fit] | –
